PubChem BioAssay AID1508588 | Peter MacCallum Cancer Centre, 2020

Screen: 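Which gene losses make BRAF-mutant melanoma cells more responsive to vemurafenib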 (primary screen)
Cell system: human WM266.4 melanoma cells (BRAF V600 mutant)
Reagents: siRNA pool against human genes, 40 nM
Time to read-out: 96 h from transfection to read-out
Challenge: vemurafenib 300 nM (about IC25), added 48 h after transfection, for 48 h; comparison arm got DMSO vehicle only
Read-out: 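Cell gain (DAPI nuclei at end minus before drug, mean of two replicates) and medium lactate by absorbance per cell, both as ratio to non-targeting siRNA, also grouped into fold-change classes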
Scale: cell gain with vemurafenib: higher = more cell gain than with non-targeting siRNA; lactate per cell with vemurafenib: higher = more lactate made per cell
Hit rule: 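Enhancement is called by pairing each knock-down's vehicle-arm and drug-arm fold-change classes for viability or glycolysis; which class combinations qualify is not given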
Meaning of the calls: active = enhances vemurafenib effect; inactive = no enhancement seen
In all, the deposit lists about 18,000 reagents; below is a random part of them. 790 of them (4.4%) count as active. 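Calls rest on a combination of fold-change classes in drug and vehicle arms, not all shown here.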

no.	Gene	cell gain with vemurafenib	lactate per cell with vemurafenib	activity call
1	UBL3 (ubiquitin like 3)	0.68	0.63	inactive
2	ADH6 (alcohol dehydrogenase 6 (class V))	0.62	0.74	inactive
3	REG1B (regenerating family member 1 beta)	0.41	1.19	inactive
4	SIRAL1 (SIR2 antiphage like 1)	0.68	0.3	inactive
5	SELENOK (selenoprotein K)	0.49	1.47	inactive
6	YJEFN3 (YjeF N-terminal domain containing 3)	0.91	1.11	inactive
7	PIP4K2B (phosphatidylinositol-5-phosphate 4-kinase type 2 beta)	0.68	1.08	inactive
8	AGPS (alkylglycerone phosphate synthase)	0.15	2.09	inactive
9	GPRC5D (G protein-coupled receptor class C group 5 member D)	0.56	1.15	inactive
10	ZDHHC9 (zDHHC palmitoyltransferase 9)	0.69	0.24	inactive
11	RAET1G (retinoic acid early transcript 1G)	0.13	2.43	inactive
12	COPB1 (coat protein complex I subunit beta 1)	-0.11	0.77	inactive
13	TBX22 (T-box transcription factor 22)	0.66	0.76	inactive
14	AMZ1 (archaelysin family metallopeptidase 1)	0.48	1.3	inactive
15	CCN1 (cellular communication network factor 1)	0.91	0.62	inactive
16	MSLNL (mesothelin like)	0.67	0.98	inactive
17	RTL8A (retrotransposon Gag like 8A)	0.02	3.66	inactive
18	ABCC10 (ATP binding cassette subfamily C member 10)	0.26	2.58	inactive
19	KREMEN2 (kringle containing transmembrane protein 2)	0.6	0.81	inactive
20	ZNF596 (zinc finger protein 596)	0.82	0.27	inactive
21	ZBTB9 (zinc finger and BTB domain containing 9)	0.83	0.42	active
22	SIGLEC10 (sialic acid binding Ig like lectin 10)	0.85	0.62	inactive
23	NR0B2 (nuclear receptor subfamily 0 group B member 2)	0.7	0.18	inactive
24	MCM3AP	0.92	0.8	inactive
25	JPT1 (Jupiter microtubule associated homolog 1)	0.75	1.1	inactive
26	OLFML1 (olfactomedin like 1)	0.52	0.54	inactive
27	SPON2 (spondin 2)	0.96	0.99	inactive
28	ZXDB (zinc finger X-linked duplicated B)	0.24	2.37	inactive
29	TREM2 (triggering receptor expressed on myeloid cells 2)	0.37	1.31	inactive
30	A4GNT (alpha-1,4-N-acetylglucosaminyltransferase)	0.48	0.54	inactive
31	CELF6 (CUGBP Elav-like family member 6)	1.25	0.44	inactive
32	PSMD2 (proteasome 26S subunit ubiquitin receptor, non-ATPase 2)	-0.12	3.59	inactive
33	TUFT1 (tuftelin 1)	-0.04	0.69	inactive
34	MKRN1 (makorin ring finger protein 1)	0.87	0.75	inactive
35	PWP1 (PWP1 homolog, endonuclein)	0.6	0.93	inactive
36	SLC35A5	0.08	1.77	inactive
37	TFE3 (transcription factor binding to IGHM enhancer 3)	1.1	1.06	inactive
38	DACH2 (dachshund family transcription factor 2)	0.65	1.12	inactive
39	CD320 (CD320 molecule)	1.46	0.86	inactive
40	DUSP1 (dual specificity phosphatase 1)	0.57	1.15	inactive
41	IL1RN (interleukin 1 receptor antagonist)	0.96	0.98	inactive
42	PSMD9 (proteasome 26S subunit, non-ATPase 9)	0.05	0.89	inactive
43	TXNRD2 (thioredoxin reductase 2)	0.25	2.21	inactive
44	HOXD13 (homeobox D13)	0.92	1.24	inactive
45	LRRC25 (leucine rich repeat containing 25)	0.46	1.27	inactive
46	GPR35 (G protein-coupled receptor 35)	0.51	1.15	inactive
47	SAPCD1 (suppressor APC domain containing 1)	0.68	0.93	inactive
48	TCEAL3 (transcription elongation factor A like 3)	0.74	1.21	inactive
49	RXRA (retinoid X receptor alpha)	0.65	1.73	inactive
50	HMGCLL1 (3-hydroxy-3-methylglutaryl-CoA lyase like 1)	0.76	1.25	inactive
51	CXCL17 (C-X-C motif chemokine ligand 17)	0.36	0.94	inactive
52	CCDC63 (coiled-coil domain containing 63)	0.58	1	inactive
53	VTI1A (vesicle transport through interaction with t-SNAREs 1A)	0.46	1.25	inactive
54	NRP1 (neuropilin 1)	0.76	0.42	active
55	MRPL13 (mitochondrial ribosomal protein L13)	0.46	0.72	inactive
56	COL4A2 (collagen type IV alpha 2 chain)	0.75	0.94	inactive
57	JAG2 (jagged canonical Notch ligand 2)	0.13	1.52	inactive

Next part (9 carried over from the part before).
no.	Gene	cell gain with vemurafenib	lactate per cell with vemurafenib	activity call
49	RXRA (retinoid X receptor alpha)	0.65	1.73	inactive
50	HMGCLL1 (3-hydroxy-3-methylglutaryl-CoA lyase like 1)	0.76	1.25	inactive
51	CXCL17 (C-X-C motif chemokine ligand 17)	0.36	0.94	inactive
52	CCDC63 (coiled-coil domain containing 63)	0.58	1	inactive
53	VTI1A (vesicle transport through interaction with t-SNAREs 1A)	0.46	1.25	inactive
54	NRP1 (neuropilin 1)	0.76	0.42	active
55	MRPL13 (mitochondrial ribosomal protein L13)	0.46	0.72	inactive
56	COL4A2 (collagen type IV alpha 2 chain)	0.75	0.94	inactive
57	JAG2 (jagged canonical Notch ligand 2)	0.13	1.52	inactive
58	DPYSL2 (dihydropyrimidinase like 2)	0.35	0.18	active
59	SLC5A6	0.73	0.39	inactive
60	DYSF (dysferlin)	0.71	2.13	inactive
61	ZFAND1 (zinc finger AN1-type containing 1)	0.54	0.92	inactive
62	PSMC2 (proteasome 26S subunit, ATPase 2)	0.15	2.58	inactive
63	SCARB2 (scavenger receptor class B member 2)	0.61	1.42	inactive
64	PAPLN (papilin, proteoglycan like sulfated glycoprotein)	0.85	0.82	inactive
65	CPEB4 (cytoplasmic polyadenylation element binding protein 4)	0.45	0.88	inactive
66	RPS4X (ribosomal protein S4 X-linked)	-0.2	3.01	inactive
67	WSB2 (WD repeat and SOCS box containing 2)	0.3	1.41	inactive
68	MIDEAS (mitotic deacetylase associated SANT domain protein)	0.3	2.14	inactive
69	DGKK (diacylglycerol kinase kappa)	0.71	1.27	inactive
70	PUM3 (pumilio RNA binding family member 3)	0.19	1.08	active
71	MPND (MPN domain containing)	0.38	0.99	inactive
72	R3HCC1L (R3H domain and coiled-coil containing 1 like)	1	0.66	inactive
73	SNX33 (sorting nexin 33)	0.79	1.12	inactive
74	DBR1 (debranching RNA lariats 1)	0.31	0.5	inactive
75	DPF1 (double PHD fingers 1)	0.58	1.73	inactive
76	NR1D1 (nuclear receptor subfamily 1 group D member 1)	0.62	0.11	inactive
77	ZC3H18-DT (ZC3H18 divergent transcript)	0.84	0.94	inactive
78	BECN1 (beclin 1)	0.68	1.15	inactive
79	GSTA5 (glutathione S-transferase alpha 5)	0	0.3	inactive
80	DHX57 (DExH-box helicase 57)	0.22	1.34	inactive
81	NKAP (NFKB activating protein)	0.49	0.54	inactive
82	MRPS25 (mitochondrial ribosomal protein S25)	0.14	1.54	inactive
83	OAZ1 (ornithine decarboxylase antizyme 1)	0.62	0.85	inactive
84	TCP11L1 (t-complex 11 like 1)	0.7	0.38	inactive
85	PTPN21 (protein tyrosine phosphatase non-receptor type 21)	0.66	0.33	inactive
86	PCID2 (PCI domain containing 2)	0.95	0.66	inactive
87	MTMR4 (myotubularin related protein 4)	0.5	1.02	inactive
88	ALDH1A1 (aldehyde dehydrogenase 1 family member A1)	0.91	0.48	inactive
89	GADL1 (GAD like acidic amino acid decarboxylase 1)	0.84	0.54	inactive
90	SHMT1 (serine hydroxymethyltransferase 1)	0.83	0.46	active
91	MXRA8 (matrix remodeling associated 8)	0.36	2.05	inactive
92	NPY5R (neuropeptide Y receptor Y5)	0.09	0.62	inactive
93	CLNS1A (chloride nucleotide-sensitive channel 1A)	0.63	0.71	inactive
94	TCAF1 (TRPM8 channel associated factor 1)	0.34	0.5	inactive
95	USB1 (U6 snRNA biogenesis phosphodiesterase 1)	0.31	3.37	inactive
96	CSNK1G3 (casein kinase 1 gamma 3)	0.88	0.64	inactive
97	SRP68 (signal recognition particle 68)	0.49	1.5	inactive
98	SURF6 (surfeit 6)	0.56	1.24	inactive
99	AICDA (activation induced cytidine deaminase)	0.66	0.92	inactive
100	SKA3 (spindle and kinetochore associated complex subunit 3)	0.29	2	inactive
101	PANK4 (pantothenate kinase 4 (inactive))	0.37	1.27	inactive
102	KCNJ13 (potassium inwardly rectifying channel subfamily J member 13)	0.51	1.07	inactive
103	THOC5 (THO complex subunit 5)	0.47	1.64	inactive
104	RPIA (ribose 5-phosphate isomerase A)	0.72	1	inactive
105	ZNG1C (Zn regulated GTPase metalloprotein activator 1C)	0.92	0.86	inactive
106	ITPKC (inositol-trisphosphate 3-kinase C)	0.52	0.64	inactive
107	MCAT	0.51	1.15	inactive
